# Among all 290,000 compounds or so, about 60 (0.02%) were called active. The source calls these results inconclusive, neither active nor inactive. The rule behind the calls is not given here.
# Assay: West Nile virus antiviral activity, cell-based, CPE readout (AID 1621)
# Conditions: West Nile virus-infected cells, at 10 µM, stronger effect = higher value
row,SMILES,CPE inhibition
1,CN(C)C(=O)c1c([N+](=O)[O-])cc([N+](=O)[O-])cc1[N+](=O)[O-],inconclusive: 8.62%

# — PubChem BioAssay AID1621 (Southern Research Specialized Biocontainment Screening …, 2009)
